Source: article PMC5215751
No constants are given. Whether binding was seen depends on the method and setting. Binding seen in cells or lysates may run through a third protein. Here binding means that the protein was enriched with, or labelled near, the bait; the list need not be complete.

The chains behind the UniProt entries cited, without tags or fusion partners.
UniProt Q13049: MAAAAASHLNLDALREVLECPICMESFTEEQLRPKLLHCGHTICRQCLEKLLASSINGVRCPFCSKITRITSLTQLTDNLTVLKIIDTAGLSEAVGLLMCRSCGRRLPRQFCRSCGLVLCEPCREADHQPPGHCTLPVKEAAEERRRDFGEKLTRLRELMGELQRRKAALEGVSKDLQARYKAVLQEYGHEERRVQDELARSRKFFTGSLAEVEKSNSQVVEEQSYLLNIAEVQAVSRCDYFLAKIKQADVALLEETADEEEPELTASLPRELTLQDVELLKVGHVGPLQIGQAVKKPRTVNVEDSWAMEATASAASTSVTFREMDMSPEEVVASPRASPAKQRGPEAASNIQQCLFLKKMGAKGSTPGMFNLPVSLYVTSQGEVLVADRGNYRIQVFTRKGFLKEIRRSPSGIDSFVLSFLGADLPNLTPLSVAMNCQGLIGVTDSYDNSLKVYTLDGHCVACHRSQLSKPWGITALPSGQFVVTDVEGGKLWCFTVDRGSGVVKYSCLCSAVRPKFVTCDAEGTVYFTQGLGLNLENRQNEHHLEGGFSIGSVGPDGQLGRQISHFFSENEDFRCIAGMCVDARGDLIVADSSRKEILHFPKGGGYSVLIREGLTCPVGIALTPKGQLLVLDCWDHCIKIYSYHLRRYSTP
UniProt P0DMV8: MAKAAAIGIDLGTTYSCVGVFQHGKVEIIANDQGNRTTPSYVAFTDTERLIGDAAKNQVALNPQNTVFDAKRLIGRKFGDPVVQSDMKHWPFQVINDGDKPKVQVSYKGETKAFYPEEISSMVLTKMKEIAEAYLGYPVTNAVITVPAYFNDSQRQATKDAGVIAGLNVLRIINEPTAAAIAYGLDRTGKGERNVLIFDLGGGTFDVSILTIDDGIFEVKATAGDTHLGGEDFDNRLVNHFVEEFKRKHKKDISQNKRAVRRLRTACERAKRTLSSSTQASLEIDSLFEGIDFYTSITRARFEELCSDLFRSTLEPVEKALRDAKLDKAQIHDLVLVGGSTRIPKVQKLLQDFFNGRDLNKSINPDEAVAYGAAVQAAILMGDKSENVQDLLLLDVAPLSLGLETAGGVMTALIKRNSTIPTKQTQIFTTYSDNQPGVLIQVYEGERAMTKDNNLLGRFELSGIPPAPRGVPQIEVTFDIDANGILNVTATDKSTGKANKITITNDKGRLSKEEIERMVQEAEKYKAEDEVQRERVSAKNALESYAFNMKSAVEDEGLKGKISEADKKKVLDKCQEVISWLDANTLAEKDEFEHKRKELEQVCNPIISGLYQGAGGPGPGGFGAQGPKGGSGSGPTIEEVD

Molecular target: MEF (myc-TEV-FLAG)-tagged TRIM32 (human) (UniProt Q13049)
Test: affinity purification with mass spectrometry; MEF-TRIM32 overexpressed in HEK293, normal culture conditions, no PKA activator; lysate immunoprecipitated with anti-myc Sepharose, released with TEV protease, immunoprecipitated with anti-FLAG Sepharose, eluted with FLAG peptide; tryptic digest, LC-MSe

binding: binds
Substance: endogenous HSP70 (HSPA1A) (from UniProt P0DMV8 1-641)
